Data as given in the supplement of paper PMC12823440, “Inhibitors supercharge kinase turnover through native proteolytic circuits” (Nature, 2025).
This is one part of the list. The calls rarely recur for the same compound in another form.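 Kinases, fused to nanoluciferase, were expressed in K562 cells; luminescence was measured every 4 h from 2 to 18 h as percent of control (DMSO = 100%, positive control = 0%). A time point is decreased if signal falls significantly (2 sigma). Hits were called by the authors by a rule that is not shown; the count of time points alone does not decide it.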

Amino acid sequences for entries named in this document (tags omitted). A change or cut given only in a name is not applied to a line headed by its entry.
UniProt Q16620, whole entry, looked up: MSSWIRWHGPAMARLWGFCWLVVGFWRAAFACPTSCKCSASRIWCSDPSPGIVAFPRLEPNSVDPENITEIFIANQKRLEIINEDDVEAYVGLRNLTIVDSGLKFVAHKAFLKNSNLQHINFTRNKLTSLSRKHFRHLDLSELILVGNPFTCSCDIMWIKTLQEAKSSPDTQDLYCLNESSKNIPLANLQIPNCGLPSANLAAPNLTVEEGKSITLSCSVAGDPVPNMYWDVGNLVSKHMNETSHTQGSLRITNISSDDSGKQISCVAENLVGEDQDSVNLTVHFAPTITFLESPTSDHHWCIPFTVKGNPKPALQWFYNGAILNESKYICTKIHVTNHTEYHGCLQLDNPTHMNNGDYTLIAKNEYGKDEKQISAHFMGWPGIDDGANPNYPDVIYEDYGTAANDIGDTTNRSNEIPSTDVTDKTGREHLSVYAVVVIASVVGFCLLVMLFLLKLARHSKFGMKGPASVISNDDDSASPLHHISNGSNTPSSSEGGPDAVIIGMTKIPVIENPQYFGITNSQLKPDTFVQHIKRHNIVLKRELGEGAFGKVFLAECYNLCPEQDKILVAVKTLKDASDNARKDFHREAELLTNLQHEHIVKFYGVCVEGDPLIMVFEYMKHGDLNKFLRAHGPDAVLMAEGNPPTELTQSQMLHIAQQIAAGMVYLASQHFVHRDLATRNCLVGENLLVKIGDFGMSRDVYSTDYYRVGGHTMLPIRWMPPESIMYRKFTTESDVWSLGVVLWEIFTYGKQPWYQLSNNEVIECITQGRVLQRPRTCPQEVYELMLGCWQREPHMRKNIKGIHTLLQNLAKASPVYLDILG
UniProt Q16288, whole entry, looked up: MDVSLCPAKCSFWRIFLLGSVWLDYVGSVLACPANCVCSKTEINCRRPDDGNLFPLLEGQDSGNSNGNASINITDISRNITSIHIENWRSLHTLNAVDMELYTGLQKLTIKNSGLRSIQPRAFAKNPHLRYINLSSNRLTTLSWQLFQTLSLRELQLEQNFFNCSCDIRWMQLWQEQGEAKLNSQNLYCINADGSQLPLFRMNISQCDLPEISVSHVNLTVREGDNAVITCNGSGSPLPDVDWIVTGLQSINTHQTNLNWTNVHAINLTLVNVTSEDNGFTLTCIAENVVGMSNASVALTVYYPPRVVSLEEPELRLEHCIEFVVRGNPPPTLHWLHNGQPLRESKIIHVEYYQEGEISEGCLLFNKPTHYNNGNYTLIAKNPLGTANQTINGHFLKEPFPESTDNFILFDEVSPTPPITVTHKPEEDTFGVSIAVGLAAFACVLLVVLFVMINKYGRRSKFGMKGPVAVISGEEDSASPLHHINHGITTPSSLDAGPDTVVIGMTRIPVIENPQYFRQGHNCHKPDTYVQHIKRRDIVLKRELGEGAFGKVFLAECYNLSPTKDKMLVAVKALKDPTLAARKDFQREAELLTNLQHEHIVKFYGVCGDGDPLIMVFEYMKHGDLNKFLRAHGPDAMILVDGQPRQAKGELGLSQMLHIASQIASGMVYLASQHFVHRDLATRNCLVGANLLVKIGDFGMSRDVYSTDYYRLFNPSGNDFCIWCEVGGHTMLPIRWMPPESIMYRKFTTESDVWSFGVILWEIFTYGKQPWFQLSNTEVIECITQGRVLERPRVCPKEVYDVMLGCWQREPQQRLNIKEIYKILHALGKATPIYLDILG
UniProt O96013: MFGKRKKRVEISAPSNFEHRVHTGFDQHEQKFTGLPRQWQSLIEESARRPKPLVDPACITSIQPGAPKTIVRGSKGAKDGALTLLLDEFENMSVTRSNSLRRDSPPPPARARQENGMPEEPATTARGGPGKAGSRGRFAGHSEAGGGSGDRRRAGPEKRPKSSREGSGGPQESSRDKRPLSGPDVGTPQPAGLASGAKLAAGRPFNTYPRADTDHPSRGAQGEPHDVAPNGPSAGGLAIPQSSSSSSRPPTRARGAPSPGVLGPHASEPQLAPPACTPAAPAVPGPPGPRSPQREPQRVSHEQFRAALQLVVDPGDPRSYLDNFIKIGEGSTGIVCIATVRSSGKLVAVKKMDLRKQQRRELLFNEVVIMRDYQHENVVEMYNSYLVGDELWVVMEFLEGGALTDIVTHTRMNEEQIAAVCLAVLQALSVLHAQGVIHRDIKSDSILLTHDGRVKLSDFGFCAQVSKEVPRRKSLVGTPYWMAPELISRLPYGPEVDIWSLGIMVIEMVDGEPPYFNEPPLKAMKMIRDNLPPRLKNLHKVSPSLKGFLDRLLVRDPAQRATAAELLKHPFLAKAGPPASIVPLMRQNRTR
UniProt Q96KB5: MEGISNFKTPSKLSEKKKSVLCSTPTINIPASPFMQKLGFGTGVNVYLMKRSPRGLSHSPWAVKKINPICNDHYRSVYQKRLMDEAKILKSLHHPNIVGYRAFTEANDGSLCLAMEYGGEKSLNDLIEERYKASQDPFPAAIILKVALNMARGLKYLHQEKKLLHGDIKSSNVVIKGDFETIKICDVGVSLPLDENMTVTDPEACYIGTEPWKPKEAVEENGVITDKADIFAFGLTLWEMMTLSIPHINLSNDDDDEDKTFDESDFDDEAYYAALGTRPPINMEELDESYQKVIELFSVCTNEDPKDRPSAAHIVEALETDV
UniProt P53350, whole entry: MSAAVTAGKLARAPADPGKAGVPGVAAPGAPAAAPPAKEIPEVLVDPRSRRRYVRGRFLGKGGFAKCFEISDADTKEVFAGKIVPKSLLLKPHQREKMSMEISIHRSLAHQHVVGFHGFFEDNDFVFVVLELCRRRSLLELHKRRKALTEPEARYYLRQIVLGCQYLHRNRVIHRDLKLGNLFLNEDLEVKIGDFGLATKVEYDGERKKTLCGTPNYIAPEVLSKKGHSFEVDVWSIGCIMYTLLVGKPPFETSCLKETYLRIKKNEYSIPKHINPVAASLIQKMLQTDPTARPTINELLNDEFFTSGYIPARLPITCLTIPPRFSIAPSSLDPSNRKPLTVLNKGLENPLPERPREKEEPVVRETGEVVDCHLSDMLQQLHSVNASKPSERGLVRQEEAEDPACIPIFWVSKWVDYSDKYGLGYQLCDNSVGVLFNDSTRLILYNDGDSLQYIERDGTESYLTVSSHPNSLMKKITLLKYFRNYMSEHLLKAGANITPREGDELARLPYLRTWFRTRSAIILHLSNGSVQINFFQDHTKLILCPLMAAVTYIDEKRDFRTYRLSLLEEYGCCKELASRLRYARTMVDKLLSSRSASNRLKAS
UniProt Q13131: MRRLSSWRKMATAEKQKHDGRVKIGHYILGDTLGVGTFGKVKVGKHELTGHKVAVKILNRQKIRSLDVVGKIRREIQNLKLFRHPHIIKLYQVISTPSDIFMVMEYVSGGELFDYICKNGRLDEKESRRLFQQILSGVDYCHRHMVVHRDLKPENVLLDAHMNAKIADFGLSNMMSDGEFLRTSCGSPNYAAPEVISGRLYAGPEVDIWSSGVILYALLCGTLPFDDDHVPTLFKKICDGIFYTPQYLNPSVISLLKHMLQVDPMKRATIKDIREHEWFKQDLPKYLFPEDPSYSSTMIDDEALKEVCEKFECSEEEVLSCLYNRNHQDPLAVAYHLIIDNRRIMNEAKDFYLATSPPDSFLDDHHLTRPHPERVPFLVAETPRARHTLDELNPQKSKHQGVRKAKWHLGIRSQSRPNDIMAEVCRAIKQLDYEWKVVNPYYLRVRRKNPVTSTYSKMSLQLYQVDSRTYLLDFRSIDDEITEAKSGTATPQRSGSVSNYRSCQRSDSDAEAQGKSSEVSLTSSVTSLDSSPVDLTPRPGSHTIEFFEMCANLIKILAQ
UniProt Q05397, whole entry, looked up: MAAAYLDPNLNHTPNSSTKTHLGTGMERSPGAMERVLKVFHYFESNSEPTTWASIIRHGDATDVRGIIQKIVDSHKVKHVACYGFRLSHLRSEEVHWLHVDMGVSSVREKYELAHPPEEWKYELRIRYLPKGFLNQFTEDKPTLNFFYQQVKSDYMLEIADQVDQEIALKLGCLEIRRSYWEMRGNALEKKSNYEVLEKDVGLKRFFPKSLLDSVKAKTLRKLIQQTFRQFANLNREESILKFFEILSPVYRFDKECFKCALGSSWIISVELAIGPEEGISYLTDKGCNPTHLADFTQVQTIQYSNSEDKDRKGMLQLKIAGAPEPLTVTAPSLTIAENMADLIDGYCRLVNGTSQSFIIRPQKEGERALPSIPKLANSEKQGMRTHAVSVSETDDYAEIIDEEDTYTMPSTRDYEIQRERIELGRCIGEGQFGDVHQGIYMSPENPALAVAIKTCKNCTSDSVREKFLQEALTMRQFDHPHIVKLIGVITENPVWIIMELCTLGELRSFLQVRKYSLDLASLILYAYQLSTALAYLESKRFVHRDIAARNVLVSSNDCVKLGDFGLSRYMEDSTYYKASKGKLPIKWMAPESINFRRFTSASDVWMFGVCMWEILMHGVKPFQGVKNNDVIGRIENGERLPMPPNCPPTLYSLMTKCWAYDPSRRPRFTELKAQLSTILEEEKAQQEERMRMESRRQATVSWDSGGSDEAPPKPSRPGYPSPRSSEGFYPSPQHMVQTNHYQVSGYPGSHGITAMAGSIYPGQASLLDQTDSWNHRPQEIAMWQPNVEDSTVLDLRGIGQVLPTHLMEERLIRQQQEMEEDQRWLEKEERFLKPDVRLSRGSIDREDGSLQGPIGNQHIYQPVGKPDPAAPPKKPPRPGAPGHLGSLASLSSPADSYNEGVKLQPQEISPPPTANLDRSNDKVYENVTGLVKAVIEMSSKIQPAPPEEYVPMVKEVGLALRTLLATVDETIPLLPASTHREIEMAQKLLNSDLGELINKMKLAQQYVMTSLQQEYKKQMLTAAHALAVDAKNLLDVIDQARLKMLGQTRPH
UniProt Q14289, whole entry, looked up: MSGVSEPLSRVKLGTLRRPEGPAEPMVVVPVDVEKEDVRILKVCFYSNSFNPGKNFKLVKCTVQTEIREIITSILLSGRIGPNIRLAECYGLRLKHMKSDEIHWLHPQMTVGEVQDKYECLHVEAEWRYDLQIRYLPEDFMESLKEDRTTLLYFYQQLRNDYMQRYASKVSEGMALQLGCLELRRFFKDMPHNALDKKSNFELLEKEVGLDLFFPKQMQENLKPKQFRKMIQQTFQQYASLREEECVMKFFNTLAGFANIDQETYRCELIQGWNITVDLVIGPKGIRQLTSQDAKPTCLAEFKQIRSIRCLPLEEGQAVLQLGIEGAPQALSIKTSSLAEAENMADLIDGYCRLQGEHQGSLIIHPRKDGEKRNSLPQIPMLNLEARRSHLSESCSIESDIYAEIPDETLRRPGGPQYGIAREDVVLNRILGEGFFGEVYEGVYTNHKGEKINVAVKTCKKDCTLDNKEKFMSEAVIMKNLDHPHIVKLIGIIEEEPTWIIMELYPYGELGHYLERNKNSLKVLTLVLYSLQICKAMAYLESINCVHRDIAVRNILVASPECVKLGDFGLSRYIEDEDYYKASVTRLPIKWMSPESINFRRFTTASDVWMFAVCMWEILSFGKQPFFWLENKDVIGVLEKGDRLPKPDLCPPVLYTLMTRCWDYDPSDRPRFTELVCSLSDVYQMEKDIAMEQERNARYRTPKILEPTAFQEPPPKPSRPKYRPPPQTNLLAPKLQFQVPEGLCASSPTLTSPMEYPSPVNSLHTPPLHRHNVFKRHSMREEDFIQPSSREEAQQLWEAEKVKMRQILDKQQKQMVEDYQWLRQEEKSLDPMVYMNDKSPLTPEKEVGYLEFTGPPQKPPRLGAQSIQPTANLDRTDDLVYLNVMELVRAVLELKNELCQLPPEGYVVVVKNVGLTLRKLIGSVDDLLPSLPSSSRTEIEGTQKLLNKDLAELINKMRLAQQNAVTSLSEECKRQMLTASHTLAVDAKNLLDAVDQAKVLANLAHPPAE

Key:
Experiment in all cases: kinase-Nluc reporter destabilization hit call (1 = scored as downregulated) (binary); higher = compound decreases kinase abundance
Conditions in all cases: K562, 2-18 h
MAPK1 = MAPK1 (UniProt P28482)
MAPK4 = MAPK4 (UniProt P31152)
MAPKAPK2 = MAPKAPK2 (UniProt P49137)
MKNK1 = MKNK1 (UniProt Q9BUB5)
NTRK2 = NTRK2 (UniProt Q16620)
NTRK3 = NTRK3 (UniProt Q16288)
PAK4 = PAK4 (UniProt O96013)
PBK = PBK (UniProt Q96KB5)
PDGFRB = PDGFRB (UniProt P09619)
PDK1 = PDK1 (UniProt Q15118)
PDPK1 = PDPK1 (UniProt O15530)
PIK4CA = PIK4CA (UniProt P42356)
PIK4CB = PIK4CB (UniProt Q9UBF8)
PLK1 = PLK1 (UniProt P53350)
PRKAA1 = PRKAA1 (UniProt Q13131)
PRKCA = PRKCA (UniProt P17252)
PTK2 = PTK2 (UniProt Q05397)
PTK2B = PTK2B (UniProt Q14289)
RAF1 = RAF1 (UniProt P04049)
[1] = molecular target: RAF1_S257L (clone: RAF1_mut) (UniProt P04049)

Measured: kinase-Nluc reporter destabilization hit call

CC1(C)CNc2cc(NC(=O)c3cccnc3NCc3ccncc3)ccc21 [Motesanib (Diphosphate)]
inactive: MAPK1; 2.5 µM 0 | MAPK4; 2.5 µM 0 | MAPKAPK2; 2.5 µM 0 | MKNK1; 2.5 µM 0 | NTRK2; 2.5 µM 0 | NTRK3; 2.5 µM 0 | PAK4; 2.5 µM 0 | PBK; 2.5 µM 0 | PDGFRB; 2.5 µM 0 | PDK1; 2.5 µM 0 | PDPK1; 2.5 µM 0 | PIK4CA; 2.5 µM 0 | PIK4CB; 2.5 µM 0 | PLK1; 2.5 µM 0 | PRKAA1; 2.5 µM 0 | PRKCA; 2.5 µM 0 | PTK2; 2.5 µM 0 | PTK2B; 2.5 µM 0 | RAF1; 2.5 µM 0 | [1]; 2.5 µM 0

CC(C)[C@@](C)(O)[C@@H]1CN(c2nc(-c3[nH]nc4ncccc34)c(F)cc2Cl)CCN1
inactive: MAPK1; 10 µM 0 | MAPK4; 10 µM 0 | MAPKAPK2; 10 µM 0 | MKNK1; 10 µM 0 | NTRK2; 10 µM 0 | NTRK3; 10 µM 0 | PAK4; 10 µM 0 | PBK; 10 µM 0 | PDGFRB; 10 µM 0 | PDK1; 10 µM 0 | PDPK1; 10 µM 0 | PIK4CA; 10 µM 0 | PIK4CB; 10 µM 0 | PLK1; 10 µM 0 | PRKAA1; 10 µM 0 | PRKCA; 10 µM 0 | PTK2; 10 µM 0 | PTK2B; 10 µM 0 | RAF1; 10 µM 0 | [1]; 10 µM 0

C[C@@H]1O[C@@H](Oc2c(-c3ccc(O)c(O)c3)oc3cc(O)cc(O)c3c2=O)[C@H](O)[C@H](O)[C@H]1O [Quercitrin]
inactive: MAPK1; 10 µM 0 | MAPK4; 10 µM 0 | MAPKAPK2; 10 µM 0 | MKNK1; 10 µM 0 | NTRK2; 10 µM 0 | NTRK3; 10 µM 0 | PAK4; 10 µM 0 | PBK; 10 µM 0 | PDGFRB; 10 µM 0 | PDK1; 10 µM 0 | PDPK1; 10 µM 0 | PIK4CA; 10 µM 0 | PIK4CB; 10 µM 0 | PLK1; 10 µM 0 | PRKAA1; 10 µM 0 | PRKCA; 10 µM 0 | PTK2; 10 µM 0 | PTK2B; 10 µM 0 | RAF1; 10 µM 0 | [1]; 10 µM 0

CCOc1nc(NC(=O)Cc2cc(OC)ccc2OC)cc(N)c1C#N [JNK Inhibitor VIII]
inactive: MAPK1; 10 µM 0 | MAPK4; 10 µM 0 | MAPKAPK2; 10 µM 0 | MKNK1; 10 µM 0 | NTRK2; 10 µM 0 | NTRK3; 10 µM 0 | PAK4; 10 µM 0 | PBK; 10 µM 0 | PDGFRB; 10 µM 0 | PDK1; 10 µM 0 | PDPK1; 10 µM 0 | PIK4CA; 10 µM 0 | PIK4CB; 10 µM 0 | PLK1; 10 µM 0 | PRKAA1; 10 µM 0 | PRKCA; 10 µM 0 | PTK2; 10 µM 0 | PTK2B; 10 µM 0 | RAF1; 10 µM 0 | [1]; 10 µM 0

O=C(NCCCNc1nc(Nc2cccc(CN3CCOCC3)c2)ncc1C1CC1)C1CCC1
inactive: MAPK1; 10 µM 0 | MAPK4; 10 µM 0 | MAPKAPK2; 10 µM 0 | MKNK1; 10 µM 0 | NTRK2; 10 µM 0 | NTRK3; 10 µM 0 | PAK4; 10 µM 0 | PBK; 10 µM 0 | PDGFRB; 10 µM 0 | PDK1; 10 µM 0 | PDPK1; 10 µM 0 | PIK4CA; 10 µM 0 | PIK4CB; 10 µM 0 | PLK1; 10 µM 0 | PRKCA; 10 µM 0 | PTK2; 10 µM 0 | PTK2B; 10 µM 0 | RAF1; 10 µM 0 | [1]; 10 µM 0

CC1(C)C(=O)N([C@H]2CCc3c(O)cccc32)c2nc(Nc3cccc(CN4CCCC4)c3)ncc21
inactive: MAPK1; 2.5 µM 0 | MAPK4; 2.5 µM 0 | MAPKAPK2; 2.5 µM 0 | MKNK1; 2.5 µM 0 | NTRK3; 2.5 µM 0 | PAK4; 2.5 µM 0 | PBK; 2.5 µM 0 | PDGFRB; 2.5 µM 0 | PDK1; 2.5 µM 0 | PDPK1; 2.5 µM 0 | PIK4CA; 2.5 µM 0 | PIK4CB; 2.5 µM 0 | PLK1; 2.5 µM 0 | PRKCA; 2.5 µM 0 | PTK2; 2.5 µM 0 | PTK2B; 2.5 µM 0 | RAF1; 2.5 µM 0 | [1]; 2.5 µM 0

CC(C)(C)n1nc(-c2ccc(Cl)cc2)c2c(N)ncnc21
inactive: MAPK1; 10 µM 0 | MAPK4; 10 µM 0 | MAPKAPK2; 10 µM 0 | MKNK1; 10 µM 0 | NTRK2; 10 µM 0 | NTRK3; 10 µM 0 | PAK4; 10 µM 0 | PBK; 10 µM 0 | PDK1; 10 µM 0 | PDPK1; 10 µM 0 | PIK4CA; 10 µM 0 | PIK4CB; 10 µM 0 | PLK1; 10 µM 0 | PRKAA1; 10 µM 0 | PRKCA; 10 µM 0 | PTK2; 10 µM 0 | PTK2B; 10 µM 0 | RAF1; 10 µM 0 | [1]; 10 µM 0

CN1CCN(c2ccc3nc(-c4c(N)c5c(F)cccc5[nH]c4=O)[nH]c3c2)CC1 [Dovitinib]
inactive: MAPK1; 2.5 µM 0 | MAPK4; 2.5 µM 0 | MAPKAPK2; 2.5 µM 0 | MKNK1; 2.5 µM 0 | NTRK2; 2.5 µM 0 | PAK4; 2.5 µM 0 | PBK; 2.5 µM 0 | PDGFRB; 2.5 µM 0 | PDK1; 2.5 µM 0 | PDPK1; 2.5 µM 0 | PIK4CA; 2.5 µM 0 | PIK4CB; 2.5 µM 0 | PLK1; 2.5 µM 0 | PRKAA1; 2.5 µM 0 | PRKCA; 2.5 µM 0 | PTK2B; 2.5 µM 0 | RAF1; 2.5 µM 0 | [1]; 2.5 µM 0

CCCCCC1CC1CC1CC1CCCCCCCC(=O)OC (centres undefined)
inactive: MAPK1; 10 µM 0 | MAPK4; 10 µM 0 | MAPKAPK2; 10 µM 0 | MKNK1; 10 µM 0 | NTRK2; 10 µM 0 | NTRK3; 10 µM 0 | PAK4; 10 µM 0 | PBK; 10 µM 0 | PDGFRB; 10 µM 0 | PDK1; 10 µM 0 | PDPK1; 10 µM 0 | PIK4CA; 10 µM 0 | PIK4CB; 10 µM 0 | PLK1; 10 µM 0 | PRKAA1; 10 µM 0 | PRKCA; 10 µM 0 | PTK2B; 10 µM 0 | RAF1; 10 µM 0 | [1]; 10 µM 0
active: PTK2; 10 µM 1
